This test has as its system HEK293A TEAD-LUC reporter. Kind of test: TEAD-luciferase reporter activity (YAP activation), robust Z score vs plate; higher = stronger YAP/TEAD activation. As to conditions: 24 h. In general terms: Reporter assays use an easily measured gene product as a stand-in for the process of interest.

This is one part of the list. This data set is noisy: repeats of one test often differ as much as different tests do.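 In a drug-repurposing library screen, luminescence reads luciferase driven by eight TEAD-binding elements, stably integrated into human kidney-derived cells. Compounds scoring over five robust Z scores above the plate mean are called hits.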

Turning to `O=C1[C@H](CC[C@H](O)c2ccc(F)cc2)[C@@H](c2ccc(O)cc2)N1c1ccc(F)cc1` [ezetimibe], the TEAD-luciferase reporter activity (compound concentration: 2 uM) was inactive: -0.0945.

For the compound `O=C1[C@H](CC[C@H](O)c2ccc(F)cc2)[C@@H](c2ccc(O)cc2)N1c1ccc(F)cc1`, the TEAD-luciferase reporter activity by setting is: (compound concentration: 200 nM) inactive: -2.62; (compound concentration: 10 uM) inactive: 0.276.

Take `CN1CCCC12Cc1ccccc1CN(C(=O)C1CCCC1)C2` (stereo not drawn): the TEAD-luciferase reporter activity is inactive: -0.513 (compound concentration: 200 nM) and inactive: -1.14 (compound concentration: 10 uM).

Consider `COc1ccc(NS(=O)(=O)c2sc3ccc(Cl)cc3c2C)cc1N1CCNCC1`, for which the TEAD-luciferase reporter activity is inactive: -0.536 (compound concentration: 200 nM), inactive: -1.02 (compound concentration: 2 uM) and inactive: -0.497 (compound concentration: 10 uM).

As for `CCn1c(C(=O)c2cc(C)cc(C#N)c2)c(C(C)C)c(=O)[nH]c1=O`, the TEAD-luciferase reporter activity (compound concentration: 200 nM) is inactive: -0.399, the TEAD-luciferase reporter activity (compound concentration: 2 uM) was inactive: -0.911 and the TEAD-luciferase reporter activity (compound concentration: 10 uM) was inactive: 0.724.

Turning to `CCC(=O)O[C@]1(C(=O)OC)[C@H](C)C[C@H]2[C@@H]3C[C@H](F)C4=CC(=O)C=C[C@]4(C)[C@@]3(Cl)[C@@H](O)C[C@@]21C`, the TEAD-luciferase reporter activity is, setting by setting: (compound concentration: 200 nM) inactive: 1.52; (compound concentration: 2 uM) inactive: 0.0261; (compound concentration: 10 uM) inactive: -1.39.

In the case of `O=C1CCC2(CCC(=O)c3cc(F)ccc32)C(=O)N1` (stereo not drawn), the TEAD-luciferase reporter activity was inactive: 0.945 (compound concentration: 200 nM), inactive: -0.499 (compound concentration: 2 uM) and inactive: 0.241 (compound concentration: 10 uM).

For `CCCOc1nc(N)c2ncn(C3CCCC3)c2n1`, the TEAD-luciferase reporter activity was inactive: -0.235 (compound concentration: 200 nM), inactive: -1.17 (compound concentration: 2 uM) and inactive: -0.0763 (compound concentration: 10 uM).

In the case of `Cn1nnc2c(C(N)=O)ncn2c1=O` [Temozolomide], under “compound concentration: 2 uM”, the TEAD-luciferase reporter activity was inactive: -0.909.

With `Cn1nnc2c(C(N)=O)ncn2c1=O`, the TEAD-luciferase reporter activity is, setting by setting: (compound concentration: 200 nM) inactive: -1.42; (compound concentration: 10 uM) inactive: -0.917.

Consider `O=C(COc1ccccc1)NC1C(=O)N2C(C(=O)O)=C(Cl)CSC12` (stereo not drawn), for which the TEAD-luciferase reporter activity reads like this: (compound concentration: 200 nM) inactive: -0.0627; (compound concentration: 2 uM) inactive: -2.27; (compound concentration: 10 uM) inactive: 0.693.

On to `O=C(CCCC(=O)N1CCN(c2nsc3ccccc23)CC1)N1CCCCCC1`, for which the TEAD-luciferase reporter activity by setting is: (compound concentration: 200 nM) inactive: 1.78; (compound concentration: 2 uM) inactive: -0.887; (compound concentration: 10 uM) inactive: 0.847.

As for `CSc1ccc(Oc2ccc(S(=O)(=O)N(C)C)cc2CN(C)C)cc1`, the TEAD-luciferase reporter activity by setting is: (compound concentration: 200 nM) inactive: 3.97; (compound concentration: 2 uM) inactive: 0.166; (compound concentration: 10 uM) inactive: -0.233.

With `NC(=O)N[C@@H](CCC(=O)O)C(=O)O`, the TEAD-luciferase reporter activity (compound concentration: 200 nM) was inactive: -0.498 and the TEAD-luciferase reporter activity (compound concentration: 10 uM) was inactive: 1.57.

Turning to `NC(=O)N[C@@H](CCC(=O)O)C(=O)O` [carglumic acid], the TEAD-luciferase reporter activity (compound concentration: 2 uM) was inactive: 1.42.

Consider `COC[C@@H]1C[C@@](C#N)(Cn2cccn2)N(C(=O)c2ccc(C(C)(C)C)c(OC)c2)[C@@H]1c1nccs1`, for which the TEAD-luciferase reporter activity by setting is: (compound concentration: 200 nM) inactive: -1.3; (compound concentration: 2 uM) inactive: 2.98; (compound concentration: 10 uM) inactive: -1.34.

On to `Cc1cc(C)cc(-c2ccc(CN3CCCC3C(=O)NC3CCCC3)cc2)c1` (stereo not drawn), for which the TEAD-luciferase reporter activity by setting is: (compound concentration: 200 nM) inactive: -3.15; (compound concentration: 10 uM) inactive: 0.297.

On to `COC(=O)[C@@H]1CC2=CC(=O)CC[C@]2(C)[C@@]23OC2C[C@@]2(C)[C@@H](CC[C@@]24CCC(=O)O4)C13` (stereo partly drawn) [eplere], for which the TEAD-luciferase reporter activity by setting is: (compound concentration: 200 nM) inactive: -1.43; (compound concentration: 2 uM) inactive: 0.865; (compound concentration: 10 uM) inactive: 0.131.

In the case of `CC(C)NCCCC[C@H](NC(=O)[C@H]1CCC(=O)N[C@@H](Cc2ccccc2)C(=O)N[C@H](Cc2ccc(O)cc2)C(=O)N[C@@H](CCCCNC(C)C)C(=O)N[C@H](CCCNC(=N)N)C(=O)N[C@@H](Cc2ccc3ccccc3c2)C(=O)NCC(=O)N1)C(N)=O`, the TEAD-luciferase reporter activity (compound concentration: 200 nM) is inactive: -0.934, the TEAD-luciferase reporter activity (compound concentration: 2 uM) is inactive: -0.913 and the TEAD-luciferase reporter activity (compound concentration: 10 uM) was inactive: -0.0404.

As for `COc1ccc(C2(CCCN(C)C)OCc3cc(C#N)ccc32)cc1` (stereo not drawn), the TEAD-luciferase reporter activity reads like this: (compound concentration: 200 nM) inactive: -1.35; (compound concentration: 2 uM) inactive: 1.2; (compound concentration: 10 uM) inactive: -0.444.

Turning to `O=[N+]([O-])c1ccc(S[C@@H]2SC[C@@H](O)[C@@H](O)[C@@H]2O)cc1`, the TEAD-luciferase reporter activity is, setting by setting: (compound concentration: 200 nM) inactive: -1.28; (compound concentration: 2 uM) inactive: -0.221; (compound concentration: 10 uM) inactive: -0.995.

`CCOc1c(N)cccc1C(=O)OCCN(CC)CC`: the TEAD-luciferase reporter activity is, setting by setting: (compound concentration: 200 nM) inactive: 0.0245; (compound concentration: 2 uM) inactive: 0.302; (compound concentration: 10 uM) inactive: 1.41.

`O=C(O)c1ccc(CNCC(O)c2ccccc2)cc1` (stereo not drawn): the TEAD-luciferase reporter activity runs as follows: (compound concentration: 200 nM) inactive: -1.35; (compound concentration: 2 uM) inactive: -2.11; (compound concentration: 10 uM) inactive: 4.77.

With `CCN(CC)CCOc1ccc2c(c1)C(=O)c1cc(OCCN(CC)CC)ccc1-2` [tilorone], the TEAD-luciferase reporter activity (compound concentration: 200 nM) is inactive: -0.784, the TEAD-luciferase reporter activity (compound concentration: 2 uM) was inactive: 0.317 and the TEAD-luciferase reporter activity (compound concentration: 10 uM) is inactive: -1.58.

On to `O=C(O)CCC(=O)c1ccc(-c2ccccc2)cc1`, for which the TEAD-luciferase reporter activity runs as follows: (compound concentration: 200 nM) inactive: -0.777; (compound concentration: 10 uM) inactive: 0.319.

As for `O=C(O)CCC(=O)c1ccc(-c2ccccc2)cc1` [Fenbufen], for the setting “compound concentration: 2 uM”, the TEAD-luciferase reporter activity is inactive: 0.203.

`COc1ccc(OC)c(C2CCN(Cc3ccc4c(c3)OCCO4)C2)c1` (stereo not drawn): the TEAD-luciferase reporter activity by setting is: (compound concentration: 200 nM) inactive: -0.335; (compound concentration: 2 uM) inactive: -0.574; (compound concentration: 10 uM) inactive: -1.3.

As for `CCCNCCOc1ccc(NC(=O)c2c[nH]c3c2C(=O)CCC3)cc1F`, the TEAD-luciferase reporter activity was inactive: -1.97 (compound concentration: 200 nM), inactive: -0.808 (compound concentration: 2 uM) and inactive: 2.16 (compound concentration: 10 uM).

Take `CCCCC[C@H](O)/C=C/[C@H]1CCC(=O)[C@@H]1CCCCCCC(=O)NC(C(=O)O)C(C)C` (stereo partly drawn): the TEAD-luciferase reporter activity is inactive: -1.3 (compound concentration: 200 nM), inactive: 0.669 (compound concentration: 2 uM) and inactive: -0.434 (compound concentration: 10 uM).

Source of the values: the supplement of paper PMC10735217.
